Our source for the AC50 values is PubChem BioAssay AID445 (National Center for Advancing Translational Sciences (NCATS), 2006).

The assay can be described thus: IkB Signaling. To be noted: ABC-DLBCL IkBa-CBG/CBR dual luciferase ratio (green luciferase fused to IkBa over red control in OCI-Ly3 lymphoma cells), 4 h. In a few lines: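 Luminescence ratio of IκBα-fused green versus native red beetle luciferase in OCI-Ly3 cells, 4 h post-doxycycline with compound; red signal alone, scaled from basal (0%) to zero light (-100%), flagged nonspecific or cytotoxic effects.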
The mark [1] stands for this setting: measured here: control luc red channel unless noted.
The mark [2] stands for this setting: measured here: IkB-luc green channel.
[3] abbreviates: measured here: control luc red channel.

The term AC50 denotes the midpoint of the concentration-response curve, whichever way the signal moves.

The other results are listed elsewhere or left out. Shown are side measurements of this screen, not its main read-out; they come without a call. Most of these compounds were active or inconclusive in the main read-out, so they are no random draw. Words in brackets tell the shape of the fitted curve; partial curves, single points and poor fits give uncertain potencies.

`Fc1ccc(CNc2nc3ccc(Cl)cc3n3nnnc23)cc1`: the AC50 under setting [1] was 2 µM [falling, full curve].

With `O=S(=O)(Nc1cccc(-c2ccc(N3CCCCC3)nn2)c1)c1ccc(Cl)s1`, under setting [1], the AC50 was 20 µM [falling, single point].

For `O=C(Nc1cccc(C(F)(F)F)c1)Nc1nnc(N2CCCCCC2)s1`, under setting [1], the AC50 was 12.6 µM [falling, partial curve].

Regarding `COc1ccccc1N1CCN(C(=O)c2cc(-c3ccc(C)c(F)c3)on2)CC1`, the AC50 under setting [1] was 12.6 µM [falling, partial curve].

In the case of `COc1cccc(-c2nc(CS(=O)(=O)CC(=O)N3CCN(c4ccccn4)CC3)c(C)o2)c1`, under setting [1], the AC50 is 31.6 µM [falling, partial curve].

Take `COc1cccc2cc(C(=O)Nc3ccc(CC(=O)O)cc3)c(=O)oc12`: the AC50 under setting [1] is 1 µM [falling, partial curve].

With `CCCCN1CC(c2nc3ccccc3n2CCCCOc2cc(C)cc(C)c2)CC1=O` (centres undefined), the AC50 under setting [1] is 12.6 µM [falling, partial curve].

Consider `CCOc1ccc(S(=O)(=O)N2Cc3ccccc3CC2C(=O)Nc2ccc(NC(C)=O)cc2)cc1` (centres undefined), for which the AC50 under setting [1] was 20 µM [falling, partial curve].

As to `CCN(C(=O)CCc1nc(-c2ccc(C)cc2)no1)c1cccc(C(F)(F)F)c1`, the AC50 under setting [1] was 31.6 µM [falling, single point].

Consider `c1coc(-c2nc(-c3ccco3)c(-c3ccco3)nc2-c2ccco2)c1`, for which the AC50 by setting is: under setting [2], 39.8 µM [rising, single point]; under setting [3], 39.8 µM [falling, single point].

For `COc1ccc(C(=O)Nc2ccc(S(=O)(=O)Nc3cc(C)nc(C)n3)cc2)cc1`, the AC50 under setting [1] is 15.8 µM [falling, single point].

Consider `COc1cc(CNc2ccc3[nH]c(=O)[nH]c3c2)ccc1OCc1ccc(F)cc1Cl`, for which the AC50 under setting [1] was 0.158 µM [falling, full curve].

Take `COC(=O)c1ccc2c(=O)n3nc(Nc4ccc(F)cc4F)sc3nc2c1`: under setting [1], the AC50 was 0.1 µM [falling, full curve].

Take `COc1ccc(CN2CCc3c(c(=O)n4ncc(C(=O)N5CCN(c6ccccc6F)CC5)c4n3C)C2)cc1`: the AC50 under setting [1] is 39.8 µM [falling, partial curve].

For the compound `CS(=O)(=O)N(Cc1ccccc1)c1ccc(C(=O)Nc2cccc(Cl)c2)cc1`, under setting [1], the concentration at half-maximal activity (AC50) is 15.8 µM [falling, partial curve].

As for `Cc1cccc(N2CCN(C(=O)c3nn(C)c4c3CS(=O)(=O)c3ccccc3-4)CC2)c1C`, the AC50 under setting [1] was 12.6 µM [falling, partial curve].

In the case of `COc1ccc(Cn2ccc3nc(C)c(C(=O)N4CCN(c5cccc(OC)c5)CC4)cc3c2=O)cc1`, under setting [1], the AC50 is 39.8 µM [falling, single point].

In the case of `COc1ccc(NC(=O)c2c(NC(=O)C(F)(F)F)sc3c2CCCCC3)cc1`, the AC50 under setting [1] is 0.631 µM [falling, full curve].

`COc1ccc(Cl)cc1NC(=O)c1cc(-c2ccc3c(c2)OCO3)on1`: under setting [1], the AC50 was 0.126 µM [rising, full curve].

As for `Cc1ncc(CO)c2c1Oc1nc(-c3ccc(Cl)cc3)nc(SCC(=O)N3CCCCC3)c1C2`, the AC50 under setting [1] was 20 µM [falling, single point].

In the case of `Cc1cccc(CSc2nc3c(sc4ccccc43)c(=O)n2CCC(=O)NC(C)C)c1`, the AC50 under setting [1] is 39.8 µM [rising, single point].

For the compound `Cc1cccc(NC(=O)CSc2nc3ccc(NC(=O)COc4ccccc4C)cc3s2)c1`, the AC50 under setting [1] is 2.51 µM [falling, full curve].

For the compound `COc1ccc(NC(=O)c2oc3ccc(S(=O)(=O)N4CCC5(CC4)OCCO5)cc3c2C)cc1`, the AC50 under setting [1] is 3.98 µM [falling, full curve].

Take `CCn1c2c(c(=O)n3ncc(C(=O)Nc4cc(Cl)ccc4OC)c13)CN(Cc1ccc(OC)cc1)CC2`: under setting [1], the AC50 is 7.94 µM [falling, partial curve, poor fit].

In the case of `Cc1c(C(=O)OCCOc2ccccc2)[nH]c2c1C(=O)CC(c1ccc(C(C)(C)C)cc1)C2` (centres undefined), the AC50 under setting [1] was 20 µM [falling, single point].

As for `CCOC(=O)C1CCN(C(=O)CCc2nc3ccccc3[nH]2)CC1`, the AC50 under setting [1] is 31.6 µM [falling, single point].

For the compound `O=C(c1cc(-c2ccco2)nn1-c1cccc(Cl)c1)N1CCCCC1`, under setting [1], the AC50 is 39.8 µM [rising, single point] [measured here: IkB-luc green channel].

For `CC1CN(C(=O)NCc2ccccc2)c2cc(Cl)ccc2O1` (centres undefined), the AC50 under setting [1] was 10 µM [falling, partial curve].

With `COc1ccc(S(=O)(=O)N2CCN(C(=O)c3c(C)nn(-c4ccccc4)c3Cl)CC2)cc1`, the AC50 under setting [1] was 12.6 µM [falling, partial curve].

As to `COc1cc(NC(=O)N2CCc3c(sc4c3CCCC4)C2c2ccccc2)cc(OC)c1OC` (centres undefined), the AC50 under setting [1] is 6.31 µM [falling, partial curve].

On to `CCOc1ccc(CNC(=O)CSc2nnc(C)c3c(C)n(-c4ccc(Cl)cc4)nc23)cc1`, for which the AC50 under setting [1] was 7.94 µM [falling, partial curve].

Turning to `COc1ccc(OC)c2sc(N3CCN(C(=O)c4ccco4)CC3)nc12`, the AC50 under setting [1] was 20 µM [rising, partial curve, poor fit].

As to `COc1ccc(-c2cc(C(F)(F)F)nc(SCCC(=O)Nc3ccc(OC)c(OC)c3)n2)cc1`, the AC50 under setting [1] is 39.8 µM [falling, single point].

On to `CCN(CC)C(=O)c1c(NC(=O)c2cccc(C)c2)sc2c1CCC(C)C2` (centres undefined), for which, under setting [1], the AC50 was 0.1 µM [falling, full curve].

For `Cc1ccc(NC(=O)c2sc3nc(-c4cccs4)ccc3c2N)cc1F`, the AC50 under setting [1] is 20 µM [falling, single point].

As for `OC(CN1CCN(c2ccccn2)CC1)Cn1c2ccccc2c2ccccc21` (centres undefined), the AC50 under setting [2] is 39.8 µM [falling, single point] and the AC50 under setting [3] is 31.6 µM [falling, single point].

For the compound `Cc1ccc(-n2ncc3c(NC4CCCCCC4)ncnc32)cc1`, under setting [1], the AC50 was 10 µM [falling, partial curve].

Consider `Cc1cc(C)c(-c2n[nH]c3c2C(c2ccccc2F)N(Cc2ccco2)C3=O)c(O)c1` (centres undefined), for which the AC50 under setting [1] was 25.1 µM [falling, partial curve].

With `O=c1[nH]c2cc(Br)ccc2n2cccc12`, the AC50 under setting [1] was 0.1 µM [rising, full curve].

Regarding `COc1ccc(Nc2ncnc3sc4c(c23)CCCC4)cc1`, the AC50 under setting [1] was 39.8 µM [falling, single point].

As to `C=C(C)COc1ccc(-c2[nH]ncc2Oc2cccc(OC)c2)c(O)c1`, the AC50 under setting [1] was 25.1 µM [falling, single point].

In the case of `CCN(CC)S(=O)(=O)c1ccc2c(c1)N(CC(=O)N1CCN(c3cccc(C)c3C)CC1)C(=O)CO2`, the AC50 under setting [1] was 39.8 µM [falling, single point].

`Clc1ccc(-n2ncc3c(NC4CCCC4)ncnc32)cc1`: the AC50 under setting [1] is 7.94 µM [falling, partial curve].

As for `CCOc1cc(CNS(=O)(=O)c2ccc3c(c2)C(C)(C)C(=O)N3)cc(OCC)c1OCC`, the AC50 under setting [1] was 0.158 µM [rising, full curve].

As for `CC(NC(=O)Cn1ccc2cc(S(=O)(=O)N3CCCCCC3)ccc21)c1ccccc1` (centres undefined), the AC50 under setting [1] is 25.1 µM [falling, partial curve].

For the compound `O=C(NCc1ccco1)c1cc(-c2cccc(Cl)c2)on1`, the AC50 under setting [1] is 10 µM [falling, partial curve].

On to `COc1ccc(C)cc1NC(=O)Nc1nnc(N2CCCCC2)s1`, for which the AC50 under setting [1] is 15.8 µM [falling, partial curve].

With `Cc1ccc(C(=O)Nc2ccc3c(c2)nc2n3CCSC2)cc1`, under setting [1], the AC50 was 20 µM [falling, partial curve].

Regarding `Cc1nn2c(=O)cc(COC(=O)c3cccc(NC(=O)COc4ccccc4C)c3)nc2s1`, the AC50 under setting [1] is 15.8 µM [falling, partial curve].

For `Cc1ccc(N2C(=O)CCSC23C(=O)N(Cc2ccccc2)c2ccccc23)cc1` (centres undefined), under setting [1], the AC50 is 39.8 µM [falling, single point].

For the compound `CCN(CC)C(=O)c1ccc2c(c1)N(Cc1ccc(C(F)(F)F)cc1)C(=O)c1ccccc1S2`, under setting [1], the AC50 is 12.6 µM [falling, partial curve].

Take `Cc1ccc(NC(=O)Nc2nnc(N3CCCC3)s2)cc1C`: under setting [1], the AC50 was 12.6 µM [falling, partial curve].

Regarding `Cn1c(=O)c(C(=O)O)nn(-c2ccccc2)c1=O`, the AC50 under setting [1] is 0.00631 µM [falling, full curve, poor fit].

For the compound `CCOC(=O)c1[nH]c(C)c(C(=O)N2CCN(c3ccc(F)cc3)CC2)c1C`, under setting [1], the AC50 was 15.8 µM [falling, partial curve].

`CCOc1ccccc1CNC(=O)C1CCCN(c2nnc(C)c3c(C)n(-c4ccccc4)nc23)C1` (centres undefined): the AC50 under setting [1] is 15.8 µM [falling, partial curve].

Regarding `COc1ccc(C(=O)N2CCN(c3nc4cc(C)ccc4cc3C#N)CC2)c(OC)c1`, the AC50 under setting [1] was 25.1 µM [falling, single point].

For `CCCN1C(=O)C(O)(CC(=O)c2ccc(OC)c(OC)c2)c2ccccc21` (centres undefined), the AC50 under setting [1] is 25.1 µM [falling, single point].

As for `CCc1ccccc1N(C)C(=O)CCc1nc(-c2ccc(C)cc2)no1`, the AC50 under setting [1] is 15.8 µM [falling, partial curve].

Take `O=C(Nc1ccc2nc(SCCOc3ccccc3)sc2c1)c1cccs1`: the AC50 under setting [1] is 0.126 µM [falling, partial curve, poor fit].

For the compound `O=C(Nc1ccc(C(F)(F)F)cc1)c1cc(S(=O)(=O)NC2CCCCC2)ccc1F`, under setting [1], the AC50 was 25.1 µM [falling, partial curve].

Consider `CCCCn1c(SCC(=O)NCc2ccco2)nc2ccc(N3CCOCC3)cc2c1=O`, for which the AC50 under setting [1] is 15.8 µM [falling, partial curve].

With `COc1cccc(CNC(=O)CSc2ncc3c(n2)-c2cc(Cl)ccc2N(C)S3(=O)=O)c1`, the concentration at half-maximal activity (AC50) under setting [1] is 39.8 µM [rising, single point].
